One substance from PMC4546166 can be followed below.

Amino acid sequences for entries named in this document (tags omitted).
UniProt Q9ESD7: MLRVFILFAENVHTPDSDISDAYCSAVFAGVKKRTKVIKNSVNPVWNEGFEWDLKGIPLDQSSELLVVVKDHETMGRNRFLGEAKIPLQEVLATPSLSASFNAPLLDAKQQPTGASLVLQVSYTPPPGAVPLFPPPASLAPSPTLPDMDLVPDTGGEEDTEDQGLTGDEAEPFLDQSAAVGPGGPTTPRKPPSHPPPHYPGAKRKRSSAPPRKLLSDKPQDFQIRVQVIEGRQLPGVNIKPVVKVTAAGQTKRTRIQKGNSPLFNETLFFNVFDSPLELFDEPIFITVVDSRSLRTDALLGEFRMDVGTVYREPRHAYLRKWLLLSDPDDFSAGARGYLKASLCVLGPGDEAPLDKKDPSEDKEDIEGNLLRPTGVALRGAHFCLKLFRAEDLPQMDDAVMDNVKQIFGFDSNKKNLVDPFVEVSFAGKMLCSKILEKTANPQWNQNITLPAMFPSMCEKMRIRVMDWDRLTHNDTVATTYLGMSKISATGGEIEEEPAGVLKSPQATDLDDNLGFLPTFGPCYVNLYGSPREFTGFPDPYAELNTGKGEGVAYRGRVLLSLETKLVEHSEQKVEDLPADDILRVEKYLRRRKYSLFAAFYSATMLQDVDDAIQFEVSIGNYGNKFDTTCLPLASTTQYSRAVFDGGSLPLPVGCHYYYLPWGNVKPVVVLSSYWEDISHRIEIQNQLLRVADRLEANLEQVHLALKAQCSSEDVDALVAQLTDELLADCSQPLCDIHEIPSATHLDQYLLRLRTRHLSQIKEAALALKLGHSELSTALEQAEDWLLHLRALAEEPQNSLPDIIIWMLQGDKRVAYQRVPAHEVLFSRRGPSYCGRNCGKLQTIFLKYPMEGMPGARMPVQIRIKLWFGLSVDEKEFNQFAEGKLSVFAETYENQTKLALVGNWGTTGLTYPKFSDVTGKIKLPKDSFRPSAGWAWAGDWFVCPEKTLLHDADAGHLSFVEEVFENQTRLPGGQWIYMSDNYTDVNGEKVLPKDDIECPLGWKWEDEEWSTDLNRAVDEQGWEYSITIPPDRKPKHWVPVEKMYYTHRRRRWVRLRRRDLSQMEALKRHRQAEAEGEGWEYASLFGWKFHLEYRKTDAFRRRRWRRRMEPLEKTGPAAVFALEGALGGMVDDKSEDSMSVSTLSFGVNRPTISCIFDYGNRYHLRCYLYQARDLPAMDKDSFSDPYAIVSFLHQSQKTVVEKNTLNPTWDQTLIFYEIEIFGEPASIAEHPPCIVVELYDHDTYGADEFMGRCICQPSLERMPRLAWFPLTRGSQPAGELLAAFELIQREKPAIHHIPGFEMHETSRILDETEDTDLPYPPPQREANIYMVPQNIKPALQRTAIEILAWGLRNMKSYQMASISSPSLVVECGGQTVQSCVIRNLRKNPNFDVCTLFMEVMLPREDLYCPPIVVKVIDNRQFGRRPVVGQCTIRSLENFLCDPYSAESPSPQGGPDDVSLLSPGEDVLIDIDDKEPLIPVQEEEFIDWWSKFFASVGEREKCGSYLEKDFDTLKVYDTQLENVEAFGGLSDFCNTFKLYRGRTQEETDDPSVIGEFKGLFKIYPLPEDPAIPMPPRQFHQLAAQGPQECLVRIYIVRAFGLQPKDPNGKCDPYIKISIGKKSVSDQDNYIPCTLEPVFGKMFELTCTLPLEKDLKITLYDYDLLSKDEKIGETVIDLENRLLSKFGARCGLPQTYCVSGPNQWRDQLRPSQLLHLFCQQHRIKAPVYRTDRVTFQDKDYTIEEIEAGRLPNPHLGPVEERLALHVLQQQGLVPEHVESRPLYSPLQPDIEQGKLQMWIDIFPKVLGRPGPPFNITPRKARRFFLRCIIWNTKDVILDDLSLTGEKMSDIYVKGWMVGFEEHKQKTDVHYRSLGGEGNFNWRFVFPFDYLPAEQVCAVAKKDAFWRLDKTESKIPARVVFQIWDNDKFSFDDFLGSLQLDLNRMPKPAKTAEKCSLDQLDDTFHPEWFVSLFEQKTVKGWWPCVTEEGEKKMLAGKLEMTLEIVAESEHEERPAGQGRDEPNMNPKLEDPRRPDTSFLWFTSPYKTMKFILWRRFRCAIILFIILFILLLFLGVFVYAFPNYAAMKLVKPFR

The assay concerns the target T1, GTPase regulator associated with focal adhesion kinase-1 (GRAF1) (mouse (endogenous in quadriceps muscle)) (UniProt Q6ZQ82).
T1 sequence: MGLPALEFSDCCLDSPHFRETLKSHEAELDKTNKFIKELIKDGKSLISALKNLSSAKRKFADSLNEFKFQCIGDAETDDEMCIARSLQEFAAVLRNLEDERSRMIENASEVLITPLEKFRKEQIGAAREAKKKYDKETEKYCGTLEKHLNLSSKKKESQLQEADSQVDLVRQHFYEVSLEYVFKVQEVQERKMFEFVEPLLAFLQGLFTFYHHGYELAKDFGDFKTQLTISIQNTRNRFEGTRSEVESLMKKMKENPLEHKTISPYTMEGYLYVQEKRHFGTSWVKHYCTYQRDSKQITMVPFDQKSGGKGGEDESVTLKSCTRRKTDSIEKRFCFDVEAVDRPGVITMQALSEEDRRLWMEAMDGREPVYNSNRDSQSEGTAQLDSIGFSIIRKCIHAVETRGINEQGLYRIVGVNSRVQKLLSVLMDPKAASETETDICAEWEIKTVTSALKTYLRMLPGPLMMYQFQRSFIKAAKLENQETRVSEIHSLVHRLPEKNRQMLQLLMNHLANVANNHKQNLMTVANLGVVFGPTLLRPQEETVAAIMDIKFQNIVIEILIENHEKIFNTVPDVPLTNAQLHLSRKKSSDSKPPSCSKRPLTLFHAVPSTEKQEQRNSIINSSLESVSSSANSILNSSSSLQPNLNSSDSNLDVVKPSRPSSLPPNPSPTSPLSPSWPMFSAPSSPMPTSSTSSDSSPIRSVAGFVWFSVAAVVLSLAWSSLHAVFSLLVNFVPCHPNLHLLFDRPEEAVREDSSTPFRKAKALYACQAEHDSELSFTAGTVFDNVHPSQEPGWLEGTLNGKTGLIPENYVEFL
The assay is described as follows: co-IP; anti-GRAF1 rabbit polyclonal antibody and Protein A Sepharose; 1000 ug cleared lysate of mouse quadriceps muscle 7 days after CTX-induced injury, in modified RIPA buffer (50 mM HEPES pH 7.2, 0.15 M NaCl, 2 mM EDTA, 0.1 % NP-40, 0.05 % deoxycholate, 0.5 % Triton X-100), overnight at 4 °C; blots probed with anti-dysferlin and anti-GRAF1.

These are yes or no findings as the source states them, for the method shown. In cells and extracts the contact can be indirect. Some entries that bind do so weakly or less than the wild type.

For dysferlin (from UniProt Q9ESD7 1-2090), the binding entry is “binds”.
